For one compound, LC retention time results are on record in the RepoRT retention time repository.

The data set is described as follows: HILIC, Waters ACQUITY UPLC BEH Amide, 100 × 2.1 mm, 1.7 µm; A: water + 0.125% formic acid + 10 mM ammonium formate; B: 5% water + 95% acetonitrile + 0.125% formic acid + 10 mM ammonium formate; gradient (min/%B) 0/100 2/100 7.7/70 9.5/40 10.25/30 12.75/100 17/100. The settings on record: stereoisomer not certain.

The structures appear in SMILES notation.

`O=C(O)C(=O)Cc1ccc(O)cc1` [4-Hydroxyphenylpyruvic acid]: the LC retention time is 1.22 min.
